# Some of the results follow. Further columns of the screen follow, without active or inactive calls. The list favours compounds with an active or inconclusive main result. Words in brackets tell the shape of the fitted curve; partial curves, single points and poor fits give uncertain potencies.
# Assay: IkB Signaling
# Conditions: ABC-DLBCL IkBa-CBG/CBR dual luciferase ratio (green luciferase fused to IkBa over red control in OCI-Ly3 lymphoma cells), 4 h
# In short: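 In this assay, an IκBα–CBG68 fusion accumulates when IKK-driven degradation is blocked; native CBR normalizes for cell number. OCI-Ly3 cells were treated 4 h with compound and doxycycline, then green and red light read after Chroma-Glo addition.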
# [1] = measured here: control luc red channel unless noted
# [2] = measured here: IkB-luc green channel
# [3] = measured here: control luc red channel
smiles,measurement,setting,value
CC(C)c1ccc(NC(=O)C2CCCN(S(=O)(=O)c3cccc4cccnc34)C2)cc1 (centres undefined),AC50,[1],"3.98 µM [rising, partial curve]"
COc1ccc(OC)c(NC(=O)c2noc3c2CCCC3)c1,AC50,[1],"3.98 µM [falling, single point]"
O=C(O)C1C2C=CC(O2)C1C(=O)Nc1ccc2c(c1)OCCO2 (centres undefined),AC50,[1],"10 µM [falling, partial curve]"
Cc1ccc(OC(C)C(=O)Nc2nonc2-c2ccc(Br)cc2)cc1C (centres undefined),AC50,[1],"25.1 µM [falling, partial curve]"
COCCNc1ncnc2ccc(-c3c(C)noc3C)cc12,AC50,[1],"1 µM [rising, full curve] [measured here: IkB-luc green channel]"
O=C(Nc1c(Cl)cccc1Cl)c1cc(-c2ccc3c(c2)OCO3)on1,AC50,[1],"0.158 µM [falling, full curve]"
Cc1ccc2nc(N(Cc3cccnc3)C(=O)COc3ccccc3)sc2c1,AC50,[1],"3.98 µM [rising, full curve, poor fit]"
CCOC(=O)Cn1c(=O)oc2cc(S(=O)(=O)N3CCN(c4cccc(C)c4C)CC3)ccc21,AC50,[1],"6.31 µM [falling, partial curve]"
O=C(NCc1ccco1)c1cc2c(s1)CCCCC2,AC50,[2],"25.1 µM [rising, partial curve]"
same,AC50,[3],"12.6 µM [falling, partial curve]"
Cc1ccc(NC(=O)C2C(=O)N(CCO)C3(C)CC2c2ccccc2O3)cc1 (centres undefined),AC50,[1],"1.26 µM [falling, full curve, poor fit]"
CCCOc1cccc(C(=O)Nc2cccc(NC(=O)c3ccc(C(C)(C)C)cc3)c2)c1,AC50,[1],"0.794 µM [falling, full curve]"
COc1ccc(CCNC(=O)C2(c3cccs3)CCOCC2)cc1OC,AC50,[1],"1.26 µM [rising, full curve, poor fit]"
COc1ccc(-c2nc3c4ccccc4n(CC(=O)Nc4cc(F)ccc4F)c(=O)n3n2)cc1,AC50,[1],"20 µM [falling, partial curve]"
CCCCC(=O)Nc1ccccc1C(=O)OCc1cc(=O)n2nc(C3CCCCC3)sc2n1,AC50,[1],"3.16 µM [falling, full curve]"
O=C(CSc1nccn1-c1ccc(F)cc1)Nc1ccc(OC(F)(F)F)cc1,AC50,[1],"12.6 µM [rising, partial curve, poor fit]"
CCOC(=O)c1c(C)oc2ccc(NS(=O)(=O)c3ccc4c5c(cccc35)C(=O)N4)cc12,AC50,[1],"7.94 µM [falling, partial curve]"
CCc1cc2c(=O)n(Cc3ccco3)c(SCc3c(C)noc3C)nc2s1,AC50,[1],"25.1 µM [falling, partial curve]"
Cc1ccc2c(C)c(C(=O)N(Cc3ccc(Cl)cc3)C3CCS(=O)(=O)C3)oc2c1 (centres undefined),AC50,[1],"39.8 µM [falling, single point]"
O=C1CN(C(=O)c2ccccc2C(F)(F)F)C(c2ccccc2)c2cc(F)ccc2N1 (centres undefined),AC50,[1],"25.1 µM [falling, single point]"
c1ccc2c(c1)ccc1cc3c(ccc4ccccc43)cc12,AC50,[1],"0.02 µM [falling, full curve]"
CCCNc1c(NC(=O)c2ccc(OCCC)cc2)c(=O)oc2ccccc12,AC50,[1],"1 µM [falling, full curve, poor fit]"
CCCCC#Cc1nc(N)c2ncn([C@@H]3O[C@@H](C(=O)NCC)[C@H](O)[C@@H]3O)c2n1,AC50,[2],"0.000631 µM [rising, full curve, poor fit]"
same,AC50,[3],"0.00398 µM [rising, full curve]"
COc1cc(Cl)c(C)cc1NC(=O)c1sc2nc3n(c(=O)c2c1C)CCCCC3,AC50,[1],"25.1 µM [falling, partial curve]"
Cn1c(SCc2ccc(C(F)(F)F)cc2)nc2c([nH]c3ccccc32)c1=O,AC50,[1],"0.158 µM [rising, full curve]"
COc1cc(C(=O)NCC(c2cccnc2)N2CCc3ccccc32)cc(OC)c1OC (centres undefined),AC50,[1],"10 µM [falling, partial curve]"
COc1cc2c(cc1NC(=O)CSCC(=O)O)oc1ccccc12,AC50,[1],"1.26 µM [falling, full curve]"
CC(=O)c1c(C)oc2c(Cl)cc(NS(=O)(=O)c3ccc(Cl)cc3)cc12,AC50,[1],"0.631 µM [rising, full curve]"
CCCCOC(=O)CSc1nnc(-c2cc(OC)c(OC)c(OC)c2)o1,AC50,[2],"25.1 µM [rising, single point]"
same,AC50,[3],"31.6 µM [falling, single point]"
O=C(Nc1ccc(-c2nnco2)cc1)c1ccccc1,AC50,[1],"10 µM [falling, partial curve]"
Cc1ccc(CSc2ncc(Cl)c(C(=O)NCCc3ccc(S(N)(=O)=O)cc3)n2)cc1,AC50,[1],"31.6 µM [rising, partial curve]"
COc1ccc(NC(=O)CSc2nc(-c3ccc(OC)cc3)[nH]c2-c2ccc(OC)cc2)cc1,AC50,[1],"3.16 µM [falling, partial curve]"
C=CCn1c(SCC(=O)NCCCC)nc2scc(-c3ccco3)c2c1=O,AC50,[1],"5.01 µM [rising, full curve] [measured here: IkB-luc green channel]"
COC(=O)c1ccc(Nc2nnc(-c3ccc(C)c(S(=O)(=O)N4CCN(C)CC4)c3)c3ccccc23)cc1,AC50,[1],"20 µM [falling, partial curve]"
COc1ccc(-c2nc3ccccc3s2)cc1NC(=O)COc1ccc(C)cc1,AC50,[1],"2.51 µM [rising, partial curve]"
COC(=O)c1[nH]c2ccc(Br)cc2c1NC(=O)C(C)N1CCN(C2CCCCC2)CC1 (centres undefined),AC50,[1],"31.6 µM [falling, partial curve]"
O=C(NCc1ccco1)c1cccc(-c2nnc(-c3ccccc3)o2)c1,AC50,[1],"3.98 µM [falling, full curve]"
CCOCCCN1C(=O)CN(C2CCCCCC2)C(=O)C1c1ccc(OC(C)C)c(OC)c1 (centres undefined),AC50,[1],"20 µM [falling, partial curve]"
CCC1CCCCN1S(=O)(=O)c1ccc(C(=O)Nc2sc3c(c2C(=O)NC)CCC3)cc1 (centres undefined),AC50,[1],"3.16 µM [falling, partial curve]"
O=C(O)COc1ccccc1C1C2C(=O)N(c3ccccc3)C(=O)C2ON1c1ccccc1 (centres undefined),AC50,[1],"1.58 µM [falling, full curve]"
COc1ccccc1CNC(=O)c1oc2ccc(S(=O)(=O)N3CCCCC3)cc2c1C,AC50,[1],"25.1 µM [falling, partial curve, poor fit]"
Cc1nn(-c2ccccc2)c(OC(=O)C(C)C)c1Sc1ccccc1,AC50,[1],"3.98 µM [falling, partial curve]"
Cc1ccc(NC(=O)Cc2ccc(-n3c(C)nc4cccnc43)cc2)cc1C,AC50,[1],"25.1 µM [falling, single point]"
CCOC(=O)c1cc(-c2ccccc2)n(CCCC(=O)Nc2ccc(C(C)C)cc2)c1C,AC50,[1],"31.6 µM [falling, partial curve]"
CCCCOc1ccc(S(=O)(=O)Nc2ccc(-c3ccc(N4CCCCCC4)nn3)cc2)cc1,AC50,[1],"3.16 µM [falling, full curve]"
COc1ccc(Cn2c(SCc3ccc(C(=O)NC4CCCC4)cc3)nc3ccncc32)cc1,AC50,[1],"25.1 µM [falling, single point]"
CCOC(=O)c1c(C)oc2ncnc(N3CCN(c4ccccc4OC)CC3)c12,AC50,[1],"20 µM [falling, partial curve]"
CCCN1CCN(CCNC(=O)Nc2ccc(OC)cc2OC)CC1,AC50,[1],"39.8 µM [falling, single point]"
O=C(CC1C(=O)N(c2ccccc2)C(=O)N1CCC1=CCCCC1)Nc1ccc(F)cc1 (centres undefined),AC50,[1],"31.6 µM [falling, single point]"
COc1ccc(C(=O)Nc2nc3ccccc3[nH]2)cc1OC,AC50,[1],"12.6 µM [falling, partial curve]"
Cc1ccccc1NC(=O)CSc1nc(-c2ccccc2C)nc2cc(=O)[nH]n12,AC50,[1],"31.6 µM [falling, single point]"
COc1ccccc1N(CC(=O)NCCSCc1ccccc1)S(=O)(=O)c1ccc(C)cc1,AC50,[1],"12.6 µM [falling, partial curve]"
CCc1ccc(C(=O)c2cn(CC(=O)Nc3ccc(F)cc3)c3ccc(OC)cc3c2=O)cc1,AC50,[1],"31.6 µM [falling, partial curve]"
COc1ccc(NC(=O)Cn2c(=O)n(C(C)C)c(=O)c3oc4ccccc4c32)cc1Cl,AC50,[1],"20 µM [falling, single point]"
COc1ccc(C(=O)Cn2nnc(-c3ccccc3NC(=O)c3ccco3)n2)cc1,AC50,[1],"10 µM [falling, partial curve]"
Cc1cccc(OCC(=O)OCc2cc(=O)n3nc(C4CCCCC4)sc3n2)c1,AC50,[1],"0.0501 µM [rising, full curve, poor fit]"
O=C(C1CCCN(S(=O)(=O)Cc2ccccc2)C1)N1CCc2ccccc21 (centres undefined),AC50,[1],"39.8 µM [falling, single point]"
COc1ccc(C(=O)COC(=O)c2cccc(NC(=O)c3ccc(OC)c(OC)c3)c2)cc1,AC50,[1],"7.94 µM [falling, partial curve]"
COc1ccc(C(=O)c2cn(Cc3ccc(F)cc3)c3ccc(C)cc3c2=O)cc1,AC50,[1],"31.6 µM [falling, single point]"
COc1cccc(C(=O)/C=C/Nc2cc(C)ccc2O)c1,AC50,[1],"39.8 µM [falling, single point]"
Cc1ccc(CNC(=O)CCc2c(C)nn(-c3ccc(N4CCCCC4)nn3)c2C)cc1,AC50,[1],"10 µM [falling, partial curve]"
Cc1ccc(-c2nc3ccccn3c2Nc2ccc3c(c2)OCO3)cc1,AC50,[1],"39.8 µM [falling, single point]"

# Random excerpt: 4 records from the list
smiles,measurement,setting,value
CCOCCCN1C(=O)CN(C2CCCCCC2)C(=O)C1c1ccc(OC(C)C)c(OC)c1 (centres undefined),AC50,[1],"20 µM [falling, partial curve]"
COc1ccc(CCNC(=O)C2(c3cccs3)CCOCC2)cc1OC,AC50,[1],"1.26 µM [rising, full curve, poor fit]"
O=C1CN(C(=O)c2ccccc2C(F)(F)F)C(c2ccccc2)c2cc(F)ccc2N1 (centres undefined),AC50,[1],"25.1 µM [falling, single point]"
Cc1ccc(-c2nc3ccccn3c2Nc2ccc3c(c2)OCO3)cc1,AC50,[1],"39.8 µM [falling, single point]"

# Reference: PubChem BioAssay AID445 (National Center for Advancing Translational Sciences (NCATS), 2006)
